Test results: publication PMC4187570
No constants are given. Whether binding was seen depends on the method and setting. Binding seen in cells or lysates may run through a third protein. These calls come from enrichment with a bait or labelling near it, and not all partners need be listed. A no says only that the protein was not detected with the bait.

Amino acid sequences for entries named in this document (tags omitted). Residues count along the entry.
UniProt Q86WG5: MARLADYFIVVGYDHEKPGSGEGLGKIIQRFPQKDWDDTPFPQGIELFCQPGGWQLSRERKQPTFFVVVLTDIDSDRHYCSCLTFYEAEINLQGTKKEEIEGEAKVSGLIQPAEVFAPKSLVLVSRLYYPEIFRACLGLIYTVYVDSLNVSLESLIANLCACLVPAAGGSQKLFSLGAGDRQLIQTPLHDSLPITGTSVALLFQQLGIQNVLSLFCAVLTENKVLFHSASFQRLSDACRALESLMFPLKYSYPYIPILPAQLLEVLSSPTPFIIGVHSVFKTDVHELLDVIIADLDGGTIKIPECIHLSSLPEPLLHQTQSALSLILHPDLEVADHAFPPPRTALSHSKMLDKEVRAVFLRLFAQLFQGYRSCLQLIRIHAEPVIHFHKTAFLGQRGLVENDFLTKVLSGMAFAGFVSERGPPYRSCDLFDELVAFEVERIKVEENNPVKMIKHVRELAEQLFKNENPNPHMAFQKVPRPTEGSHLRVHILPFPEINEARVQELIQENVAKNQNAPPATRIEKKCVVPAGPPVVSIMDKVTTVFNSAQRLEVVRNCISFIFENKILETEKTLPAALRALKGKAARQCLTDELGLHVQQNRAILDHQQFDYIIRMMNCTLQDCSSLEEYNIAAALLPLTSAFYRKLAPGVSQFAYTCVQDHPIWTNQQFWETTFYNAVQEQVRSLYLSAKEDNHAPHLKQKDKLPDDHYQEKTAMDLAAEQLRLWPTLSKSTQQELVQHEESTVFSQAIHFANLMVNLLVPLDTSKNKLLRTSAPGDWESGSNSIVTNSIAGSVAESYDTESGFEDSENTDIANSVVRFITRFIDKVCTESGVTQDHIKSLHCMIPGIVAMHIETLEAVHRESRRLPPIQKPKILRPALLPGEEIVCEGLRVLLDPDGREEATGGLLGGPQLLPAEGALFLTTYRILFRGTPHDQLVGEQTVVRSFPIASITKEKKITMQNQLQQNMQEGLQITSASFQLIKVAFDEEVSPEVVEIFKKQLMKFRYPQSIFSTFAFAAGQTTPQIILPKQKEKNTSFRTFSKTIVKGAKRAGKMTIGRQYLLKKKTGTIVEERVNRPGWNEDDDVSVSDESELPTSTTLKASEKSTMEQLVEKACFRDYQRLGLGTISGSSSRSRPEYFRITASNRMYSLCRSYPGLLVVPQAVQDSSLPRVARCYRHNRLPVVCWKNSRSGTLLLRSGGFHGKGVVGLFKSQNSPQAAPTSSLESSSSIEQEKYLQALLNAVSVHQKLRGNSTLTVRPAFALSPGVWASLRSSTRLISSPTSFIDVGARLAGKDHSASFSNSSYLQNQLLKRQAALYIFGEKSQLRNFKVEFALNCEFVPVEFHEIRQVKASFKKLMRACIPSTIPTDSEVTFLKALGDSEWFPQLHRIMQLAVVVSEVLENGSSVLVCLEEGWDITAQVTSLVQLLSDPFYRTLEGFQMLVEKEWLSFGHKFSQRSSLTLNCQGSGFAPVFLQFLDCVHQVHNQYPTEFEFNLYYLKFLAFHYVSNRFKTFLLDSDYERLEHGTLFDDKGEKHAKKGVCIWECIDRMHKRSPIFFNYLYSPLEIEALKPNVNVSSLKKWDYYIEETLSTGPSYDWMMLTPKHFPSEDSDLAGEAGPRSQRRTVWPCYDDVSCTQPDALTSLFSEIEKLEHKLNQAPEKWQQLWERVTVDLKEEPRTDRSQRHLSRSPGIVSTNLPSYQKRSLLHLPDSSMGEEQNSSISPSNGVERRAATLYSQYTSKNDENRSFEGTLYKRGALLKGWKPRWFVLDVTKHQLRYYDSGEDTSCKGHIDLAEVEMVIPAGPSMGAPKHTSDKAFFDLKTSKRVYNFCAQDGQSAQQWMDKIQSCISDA
UniProt Q8IUD2: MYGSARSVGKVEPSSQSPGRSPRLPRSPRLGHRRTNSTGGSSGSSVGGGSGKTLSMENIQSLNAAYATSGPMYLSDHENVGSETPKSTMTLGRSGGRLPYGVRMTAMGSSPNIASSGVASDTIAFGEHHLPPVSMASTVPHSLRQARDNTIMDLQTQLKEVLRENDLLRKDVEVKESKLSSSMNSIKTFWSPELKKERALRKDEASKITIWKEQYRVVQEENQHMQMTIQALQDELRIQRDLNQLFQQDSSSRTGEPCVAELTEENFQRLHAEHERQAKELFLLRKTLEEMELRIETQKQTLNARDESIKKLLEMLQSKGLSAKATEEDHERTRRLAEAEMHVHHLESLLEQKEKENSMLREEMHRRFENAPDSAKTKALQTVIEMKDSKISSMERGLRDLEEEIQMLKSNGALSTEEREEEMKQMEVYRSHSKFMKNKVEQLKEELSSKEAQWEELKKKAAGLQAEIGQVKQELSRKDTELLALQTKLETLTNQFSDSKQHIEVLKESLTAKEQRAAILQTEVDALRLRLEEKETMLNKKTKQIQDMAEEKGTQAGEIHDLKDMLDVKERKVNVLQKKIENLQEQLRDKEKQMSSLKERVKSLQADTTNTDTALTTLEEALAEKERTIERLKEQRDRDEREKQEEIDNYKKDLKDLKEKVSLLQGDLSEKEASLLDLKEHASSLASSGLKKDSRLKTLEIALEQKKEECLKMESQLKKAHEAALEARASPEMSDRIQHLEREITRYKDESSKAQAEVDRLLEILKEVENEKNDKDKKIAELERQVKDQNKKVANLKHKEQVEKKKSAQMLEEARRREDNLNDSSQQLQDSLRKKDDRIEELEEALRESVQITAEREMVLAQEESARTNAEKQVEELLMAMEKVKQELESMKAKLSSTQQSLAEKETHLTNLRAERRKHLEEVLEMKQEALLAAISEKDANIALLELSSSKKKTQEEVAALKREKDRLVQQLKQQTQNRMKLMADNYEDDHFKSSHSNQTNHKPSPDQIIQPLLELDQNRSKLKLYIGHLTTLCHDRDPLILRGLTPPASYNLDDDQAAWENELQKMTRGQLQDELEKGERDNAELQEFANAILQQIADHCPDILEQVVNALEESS
UniProt Q3ZCQ8, residues 45-353: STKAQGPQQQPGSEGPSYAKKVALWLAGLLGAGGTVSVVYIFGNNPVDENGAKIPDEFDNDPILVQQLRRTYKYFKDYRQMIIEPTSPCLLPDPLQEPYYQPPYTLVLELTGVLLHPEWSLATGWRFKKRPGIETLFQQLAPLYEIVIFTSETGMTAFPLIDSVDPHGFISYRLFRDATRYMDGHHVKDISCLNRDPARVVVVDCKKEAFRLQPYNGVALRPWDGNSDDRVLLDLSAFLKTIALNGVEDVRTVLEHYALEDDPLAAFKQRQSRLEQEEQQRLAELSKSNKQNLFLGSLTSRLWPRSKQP
UniProt Q9Y6K9: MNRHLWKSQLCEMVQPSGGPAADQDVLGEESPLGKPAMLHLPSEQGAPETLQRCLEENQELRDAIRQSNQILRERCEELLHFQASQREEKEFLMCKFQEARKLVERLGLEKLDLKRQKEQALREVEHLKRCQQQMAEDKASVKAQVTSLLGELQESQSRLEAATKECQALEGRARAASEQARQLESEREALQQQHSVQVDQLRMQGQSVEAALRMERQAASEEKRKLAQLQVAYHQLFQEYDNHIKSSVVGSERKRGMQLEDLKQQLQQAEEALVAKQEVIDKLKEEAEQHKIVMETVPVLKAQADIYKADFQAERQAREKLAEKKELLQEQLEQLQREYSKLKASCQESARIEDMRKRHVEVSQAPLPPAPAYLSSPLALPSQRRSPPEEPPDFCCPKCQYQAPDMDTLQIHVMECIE
UniProt P01024, residues 23-1663: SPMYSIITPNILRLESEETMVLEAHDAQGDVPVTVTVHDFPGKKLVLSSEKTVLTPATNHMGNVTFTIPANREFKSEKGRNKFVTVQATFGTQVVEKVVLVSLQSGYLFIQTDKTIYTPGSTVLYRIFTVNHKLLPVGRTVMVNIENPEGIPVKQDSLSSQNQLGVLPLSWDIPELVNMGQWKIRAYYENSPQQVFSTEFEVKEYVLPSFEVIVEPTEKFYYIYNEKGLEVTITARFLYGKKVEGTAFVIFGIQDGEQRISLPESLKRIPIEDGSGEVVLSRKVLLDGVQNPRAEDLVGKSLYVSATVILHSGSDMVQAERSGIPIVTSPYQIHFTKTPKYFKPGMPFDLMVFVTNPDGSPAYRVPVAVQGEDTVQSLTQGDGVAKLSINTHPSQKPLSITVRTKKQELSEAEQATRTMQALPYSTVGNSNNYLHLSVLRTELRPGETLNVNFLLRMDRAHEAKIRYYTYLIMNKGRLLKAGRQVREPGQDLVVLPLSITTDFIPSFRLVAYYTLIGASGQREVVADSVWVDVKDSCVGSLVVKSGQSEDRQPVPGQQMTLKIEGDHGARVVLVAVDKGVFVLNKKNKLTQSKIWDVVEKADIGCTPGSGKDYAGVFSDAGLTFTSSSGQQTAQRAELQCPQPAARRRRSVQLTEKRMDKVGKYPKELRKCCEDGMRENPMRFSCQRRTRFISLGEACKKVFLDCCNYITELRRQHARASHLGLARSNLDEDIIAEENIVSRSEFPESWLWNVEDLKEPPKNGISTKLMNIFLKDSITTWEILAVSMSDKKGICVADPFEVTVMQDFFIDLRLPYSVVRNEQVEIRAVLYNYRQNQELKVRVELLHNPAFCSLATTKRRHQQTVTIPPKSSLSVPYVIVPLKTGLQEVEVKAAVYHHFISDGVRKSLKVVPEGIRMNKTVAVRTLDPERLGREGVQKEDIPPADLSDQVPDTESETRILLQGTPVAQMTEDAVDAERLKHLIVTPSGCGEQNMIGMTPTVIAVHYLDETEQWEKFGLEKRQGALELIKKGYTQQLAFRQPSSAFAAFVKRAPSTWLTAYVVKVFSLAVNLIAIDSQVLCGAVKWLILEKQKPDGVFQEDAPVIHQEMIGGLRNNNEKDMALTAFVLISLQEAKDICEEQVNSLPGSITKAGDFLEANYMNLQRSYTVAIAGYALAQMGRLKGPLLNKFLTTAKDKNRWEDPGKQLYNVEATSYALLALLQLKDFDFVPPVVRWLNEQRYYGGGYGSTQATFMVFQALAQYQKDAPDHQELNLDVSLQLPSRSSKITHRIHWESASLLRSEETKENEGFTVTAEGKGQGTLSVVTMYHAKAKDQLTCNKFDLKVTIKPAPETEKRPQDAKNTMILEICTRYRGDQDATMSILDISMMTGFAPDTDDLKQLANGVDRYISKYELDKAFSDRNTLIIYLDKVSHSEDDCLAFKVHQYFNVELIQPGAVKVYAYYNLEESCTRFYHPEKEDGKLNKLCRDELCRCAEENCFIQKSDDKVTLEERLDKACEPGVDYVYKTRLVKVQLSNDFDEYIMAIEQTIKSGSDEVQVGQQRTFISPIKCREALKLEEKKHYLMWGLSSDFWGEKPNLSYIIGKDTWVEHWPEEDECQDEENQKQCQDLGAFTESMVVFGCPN
UniProt P35637: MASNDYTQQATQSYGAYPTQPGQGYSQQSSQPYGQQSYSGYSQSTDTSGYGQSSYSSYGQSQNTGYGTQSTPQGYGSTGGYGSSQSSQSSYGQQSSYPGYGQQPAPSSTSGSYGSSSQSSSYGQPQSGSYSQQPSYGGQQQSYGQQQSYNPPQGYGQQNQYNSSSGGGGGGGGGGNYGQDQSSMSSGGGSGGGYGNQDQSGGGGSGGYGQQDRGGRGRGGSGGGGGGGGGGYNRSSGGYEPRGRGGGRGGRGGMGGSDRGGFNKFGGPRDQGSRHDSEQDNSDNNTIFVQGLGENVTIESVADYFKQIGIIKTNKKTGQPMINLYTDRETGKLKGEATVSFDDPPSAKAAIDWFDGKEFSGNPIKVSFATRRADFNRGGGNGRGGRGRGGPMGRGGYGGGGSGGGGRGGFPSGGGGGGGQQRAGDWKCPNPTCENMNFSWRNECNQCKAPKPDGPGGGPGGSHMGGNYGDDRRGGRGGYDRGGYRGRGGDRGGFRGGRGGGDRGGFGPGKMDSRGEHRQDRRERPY
UniProt P31943: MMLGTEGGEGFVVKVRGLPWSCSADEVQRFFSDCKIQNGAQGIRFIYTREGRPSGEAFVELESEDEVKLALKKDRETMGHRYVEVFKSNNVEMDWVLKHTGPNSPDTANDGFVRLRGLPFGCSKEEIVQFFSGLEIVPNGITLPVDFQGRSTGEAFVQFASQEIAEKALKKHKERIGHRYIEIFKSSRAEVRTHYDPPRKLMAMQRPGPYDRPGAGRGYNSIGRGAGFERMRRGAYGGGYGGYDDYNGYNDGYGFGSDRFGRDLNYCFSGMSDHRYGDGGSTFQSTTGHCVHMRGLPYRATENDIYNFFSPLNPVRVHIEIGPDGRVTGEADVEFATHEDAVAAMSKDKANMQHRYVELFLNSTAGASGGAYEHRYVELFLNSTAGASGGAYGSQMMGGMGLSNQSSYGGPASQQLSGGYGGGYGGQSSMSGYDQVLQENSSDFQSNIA

Biological target: T1, IKKα (human (endogenous in A549)) (UniProt O15111)
T1 sequence: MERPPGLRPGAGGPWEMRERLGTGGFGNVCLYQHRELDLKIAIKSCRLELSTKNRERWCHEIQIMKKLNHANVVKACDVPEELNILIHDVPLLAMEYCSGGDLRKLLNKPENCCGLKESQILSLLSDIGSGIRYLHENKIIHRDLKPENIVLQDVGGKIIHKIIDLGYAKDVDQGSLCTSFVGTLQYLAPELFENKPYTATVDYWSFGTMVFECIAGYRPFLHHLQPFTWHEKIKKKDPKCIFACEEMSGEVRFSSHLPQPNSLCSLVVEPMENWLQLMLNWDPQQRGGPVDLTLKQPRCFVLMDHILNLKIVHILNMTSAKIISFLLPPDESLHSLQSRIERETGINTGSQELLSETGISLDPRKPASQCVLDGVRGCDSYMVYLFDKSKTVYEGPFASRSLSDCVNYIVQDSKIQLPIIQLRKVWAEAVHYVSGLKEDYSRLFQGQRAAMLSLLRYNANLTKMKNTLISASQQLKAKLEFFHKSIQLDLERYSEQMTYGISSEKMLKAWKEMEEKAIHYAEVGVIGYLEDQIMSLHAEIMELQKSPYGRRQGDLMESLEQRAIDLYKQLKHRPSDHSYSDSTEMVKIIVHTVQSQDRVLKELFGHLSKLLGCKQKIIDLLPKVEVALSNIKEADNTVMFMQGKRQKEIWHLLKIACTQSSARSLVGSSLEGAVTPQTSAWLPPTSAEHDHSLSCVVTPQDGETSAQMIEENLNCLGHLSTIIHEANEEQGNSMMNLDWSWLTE
Assay: affinity purification with mass spectrometry; A549 lysate (M-PER), 400 uL with 2 ug agarose-conjugated mouse anti-IKKα or rabbit anti-NEMO antibody, 1 h at room temperature, five PBS washes; SDS-PAGE, in-gel trypsin, LC-MS/MS; scored (FC-A, FC-B, SAINT) against agarose-conjugated isotype IgG and CRAPome controls; resting cells

Substance | binding
ILF2 (from UniProt Q12905 1-390) | binds
SBF2 (from UniProt Q86WG5 1-1849) | binds
SSSCA1 (human (endogenous in A549)) | binds
THBS1 (from UniProt P07996 19-1170) | binds
clathrin heavy chain 1 (from UniProt Q00610 1-1675) | binds

The remaining lines, values ahead:

binding | Substance
no binding | ELKS (from UniProt Q8IUD2 1-1116)
binds | FN1 (from UniProt P02751 32-2477)
binds | IKKβ (from UniProt O14920 1-756)
binds | MYO1B (from UniProt O43795 1-1136)
binds | TIMM50 (from UniProt Q3ZCQ8 45-353)
no binding | clathrin light chain (human (endogenous in A549))

Biological target: NEMO (NF-kB essential modulator) (human (endogenous in A549)) (UniProt Q9Y6K9)
Assay: as above

Substance | binding
C3 (from UniProt P01024 23-1663) | binds
ILF2 (from UniProt Q12905 1-390) | binds
PABPC1, a polyA-binding protein (from UniProt P11940 1-636) | binds
TRIM21 (from UniProt P19474 1-475) | binds
clathrin heavy chain 1 (from UniProt Q00610 1-1675) | binds

Next, values leading:

binding | Substance
no binding | ELKS (from UniProt Q8IUD2 1-1116)
binds | EWSR1 (from UniProt Q01844 1-656)
binds | FUS (from UniProt P35637 1-526)
binds | HNRH1_HUMAN (from UniProt P31943 1-449)
binds | VCP (from UniProt P55072 1-806)
